In patent publication US20100021918A1, “METHOD FOR ASSAYING ACTION OF ANTITUMOR AGENT USING SPLICING DEFECTS AS INDEX” (Eisai R&D Management Co., Ltd., priority 2007, published 2010):
This continues a long series; more values of the same kind are listed elsewhere.

Tested on: peripheral blood mononuclear cells (PBMC)
Assay: Microarray analysis (3), dose-dependent intron expression in PBMC at 3, 10, 30 nM, Table 5
Type: cell-based, human
Experimental: PBMC was suspended in RPMI1640 medium (containing 10% FBS, penicillin, and streptomycin) to 5×10^6 cells/ml and 1 ml of the suspension was plated per well of a 24-well plate. Immediately, 111 μl of 10 times-concentrated (8E,12E,14E)-7-((4-cycloheptylpiperazin-1-yl)carbonyl)oxy-3,6,16,21-tetrahydroxy-6,10,12,16,20-pentamethyl-18,19-epoxytricosa-8,12,14-trien-11-olide was added to the well (six wells per each concentration tested). The cells were then cultured in an incubator with 5% carbon dioxide gas at 37° C. Three hours later, the supernatant was collected and centrifuged at 1500 rpm for five minutes. TRI reagent (SIGMA) (1 ml) was added to each well of the plate from which the supernatant was removed to harvest the cells, which was added to the centrifuged pellet to dissolve. RNA was purified in accordance with the protocol of TRI reagent. RNA was further purified using RNeasy (QIAGEN) and, in accordance with the protocol, DNaseI was added to the samples during the procedure. Absorbance at 260 nm was measured to quantify an amount of RNA.
Ribosomal RNA was removed from 1 μg of each total RNA of control cells (n=3) and cells with the treatment (n=3) using RiboMinus Human/Mouse Transcriptome Isolation Kit (Invitrogen). Single stranded cDNA synthesis, double stranded cDNA synthesis, cRNA synthesis, second single stranded cDNA synthesis, cDNA fragmentation, and cDNA labeling in order were carried out for total RNA from which ribosomal RNA was removed, using GeneChip Whole Transcript Sense Target Labeling and Control Reagents (Affymetrix) to make a cDNA probe. Subsequently, the cDNA probe was used for hybridization with Human Exon 1.0 ST Array (Affymetrix). The array was washed and stained, and luminescence intensity was measured by a scanner.
The expression level of the probe set and the gene was quantified by using Expression Console Ver. 1.0 (Affymetrix) with Summarization Method and Normalization Method being set to “Median polish as used in RMA” and “None”, respectively. The expression level of the probe was normalized with that of the gene.
Probe sets showing that the normalized change in the level expression of the probe set in the group with the treatment at 30 nM was more than 5 times; the expression level of the probe set and the gene in the group with the treatment at 30 nM was more than 100; and probe set annotation was “extended, full, free”, were picked out. Regression analysis was performed with the probe sets extracted for the control group, the group with the treatment at 3 nM, the group with the treatment at 10 nM, and the group with the treatment at 30 nM to determine a p and q value for the slope of regression formula. A gene containing the probe sets with the q value of less than 5% was determined as a candidate gene with increased expression level of the intron regions (Table 5).
In Table 5, for the gene evaluated, gene name (Gene Name), abbreviated name (Gene Symbol), accession number (Accession), alias name (Synonym), transcription cluster number in Human Exon 1.0 ST Array (Human Exon 1.0 ST Array Transcription Cluster ID), chromosome number (Chromosome), type of strand (Strand), start region (Start), stop region (Stop), and change in expression level per 1 nM (Fold Change/nM) were respectively shown.

## CCC(O)C(C)C1OC1CC(C)(O)/C=C/C=C(\C)C1OC(=O)CC(O)CCC(C)(O)C(OC(=O)N2CCN(C3CCCCCC3)CC2)/C=C/C1C (centres unmarked) [E7107, (8E,12E,14E)-7-((4-cycloheptylpiperazin-1-yl)carbonyl)oxy-3,6,16,21-tetrahydroxy-6,10,12,16,20-pentamethyl-18,19-epoxytricosa-8,12,14-trien-11-olide]
Gene SH2B3 introns, regression over control, 3, 10, 30 nM
  Fold Change/nM: 1.05 nM⁻¹
Gene SH2D2A introns, regression over control, 3, 10, 30 nM
  Fold Change/nM: 1.05 nM⁻¹
Gene SLC2A3 introns, regression over control, 3, 10, 30 nM
  Fold Change/nM: 1.05 nM⁻¹
Gene SLC3A2 introns, regression over control, 3, 10, 30 nM
  Fold Change/nM: 1.05 nM⁻¹
Gene SLC38A1, intron expression, 3, 10, 30 nM
  Fold Change/nM: 1.06 nM⁻¹
Gene SMAD3 introns, regression over control, 3, 10, 30 nM
  Fold Change/nM: 1.05 nM⁻¹
Gene SMCHD1, intron expression, 3, 10, 30 nM
  Fold Change/nM: 1.06 nM⁻¹
Gene SMEK2 introns, regression over control, 3, 10, 30 nM
  Fold Change/nM: 1.05 nM⁻¹
Gene SMG7, intron expression, 3, 10, 30 nM
  Fold Change/nM: 1.06 nM⁻¹
Gene SMURF2, intron expression, 3, 10, 30 nM
  Fold Change/nM: 1.06 nM⁻¹
Gene SNRPB2 introns, regression over control, 3, 10, 30 nM
  Fold Change/nM: 1.05 nM⁻¹
Gene SOD2 // MGC5618, intron expression, 3, 10, 30 nM
  Fold Change/nM: 1.06 nM⁻¹
Gene SP110, intron expression, 3, 10, 30 nM
  Fold Change/nM: 1.06 nM⁻¹
Gene SPAG9, intron expression, 3, 10, 30 nM
  Fold Change/nM: 1.06 nM⁻¹
Gene SQSTM1 // OSIL introns, regression over control, 3, 10, 30 nM
  Fold Change/nM: 1.05 nM⁻¹
Gene SRPK2 introns, regression over control, 3, 10, 30 nM
  Fold Change/nM: 1.05 nM⁻¹
Gene STIM2 introns, regression over control, 3, 10, 30 nM
  Fold Change/nM: 1.05 nM⁻¹
Gene STK38L introns, regression over control, 3, 10, 30 nM
  Fold Change/nM: 1.05 nM⁻¹
Gene TARDBP, intron expression, 3, 10, 30 nM
  Fold Change/nM: 1.06 nM⁻¹
Gene TCF12, intron expression, 3, 10, 30 nM
  Fold Change/nM: 1.06 nM⁻¹
Gene TDRD7, intron expression, 3, 10, 30 nM
  Fold Change/nM: 1.06 nM⁻¹
Gene THRAP2 introns, regression over control, 3, 10, 30 nM
  Fold Change/nM: 1.05 nM⁻¹
Gene TMBIM4 introns, regression over control, 3, 10, 30 nM
  Fold Change/nM: 1.05 nM⁻¹
Gene TMOD3 introns, regression over control, 3, 10, 30 nM
  Fold Change/nM: 1.05 nM⁻¹
Gene TNKS2 introns, regression over control, 3, 10, 30 nM
  Fold Change/nM: 1.05 nM⁻¹
Gene TOP1, intron expression, 3, 10, 30 nM
  Fold Change/nM: 1.06 nM⁻¹
Gene TOP2B introns, regression over control, 3, 10, 30 nM
  Fold Change/nM: 1.05 nM⁻¹
Gene TSC22D3, intron expression, 3, 10, 30 nM
  Fold Change/nM: 1.06 nM⁻¹
Gene TTRAP introns, regression over control, 3, 10, 30 nM
  Fold Change/nM: 1.05 nM⁻¹
Gene TXNDC14 // CTNND1, intron expression, 3, 10, 30 nM
  Fold Change/nM: 1.06 nM⁻¹
Gene TXNL1 introns, regression over control, 3, 10, 30 nM
  Fold Change/nM: 1.05 nM⁻¹
Gene TXNRD1 introns, regression over control, 3, 10, 30 nM
  Fold Change/nM: 1.05 nM⁻¹
Gene UBAP1, intron expression, 3, 10, 30 nM
  Fold Change/nM: 1.06 nM⁻¹
Gene UBB // C17orf45, intron expression, 3, 10, 30 nM
  Fold Change/nM: 1.06 nM⁻¹
Gene UBE3A introns, regression over control, 3, 10, 30 nM
  Fold Change/nM: 1.05 nM⁻¹
Gene UBP1, intron expression, 3, 10, 30 nM
  Fold Change/nM: 1.06 nM⁻¹
Gene UBQLN1 // DIDO1 introns, regression over control, 3, 10, 30 nM
  Fold Change/nM: 1.05 nM⁻¹
Gene USP7, intron expression, 3, 10, 30 nM
  Fold Change/nM: 1.06 nM⁻¹
Gene USP9X // USP9Y, intron expression, 3, 10, 30 nM
  Fold Change/nM: 1.05 nM⁻¹
Gene USP36 introns, regression over control, 3, 10, 30 nM
  Fold Change/nM: 1.05 nM⁻¹
Gene VPS53 introns, regression over control, 3, 10, 30 nM
  Fold Change/nM: 1.05 nM⁻¹
Gene WAC introns, regression over control, 3, 10, 30 nM
  Fold Change/nM: 1.05 nM⁻¹
Gene WAPAL introns, regression over control, 3, 10, 30 nM
  Fold Change/nM: 1.05 nM⁻¹
Gene ZC3HAV1 introns, regression over control, 3, 10, 30 nM
  Fold Change/nM: 1.05 nM⁻¹
Gene ZFAND3, intron expression, 3, 10, 30 nM
  Fold Change/nM: 1.06 nM⁻¹
Gene ZNF207, intron expression, 3, 10, 30 nM
  Fold Change/nM: 1.06 nM⁻¹
Gene ZNF451 // KIAA1702, intron expression, 3, 10, 30 nM
  Fold Change/nM: 1.06 nM⁻¹
Intron expression of gene C1orf50 (cluster 2332767), slope over control, 3, 10, 30 nM
  Fold Change/nM: 1.04 nM⁻¹
Intron expression of gene C6orf94 // LTV1 (cluster 2929036), slope over control, 3, 10, 30 nM
  Fold Change/nM: 1.04 nM⁻¹
Intron expression of gene CCT6A (cluster 3003193), slope over control, 3, 10, 30 nM
  Fold Change/nM: 1.04 nM⁻¹
Intron expression of gene CD3D (cluster 3393744), slope over control, 3, 10, 30 nM
  Fold Change/nM: 1.04 nM⁻¹
Intron expression of gene CLEC5A (cluster 3076868), slope over control, 3, 10, 30 nM
  Fold Change/nM: 1.04 nM⁻¹
Intron expression of gene EIF3S9 (cluster 2987441), slope over control, 3, 10, 30 nM
  Fold Change/nM: 1.04 nM⁻¹
Intron expression of gene ELMO1 (cluster 3046197), slope over control, 3, 10, 30 nM
  Fold Change/nM: 1.04 nM⁻¹
Intron expression of gene FXR1 (cluster 2654394), slope over control, 3, 10, 30 nM
  Fold Change/nM: 1.04 nM⁻¹
Intron expression of gene GBP5 (cluster 2422035), slope over control, 3, 10, 30 nM
  Fold Change/nM: 1.04 nM⁻¹
